Data: patent EP0485217A2, “Hydantoin derivatives, and their use in preventing and treating diabetic complications and circulatory organ diseases” (priority 1990, dated 1992)
Where two headings read alike, the source gives them in different places.

Test system: Extracted Guinea Pigs' Aortae
Assay: Relaxation of extracted thoracic aorta contracted by KCl or NE
Set-up: species or system Hartley guinea pigs
Conditions: Cavia porcellus, 50% relaxation
From the text: Stunned by receiving a blow on the head, Hartley guinea pigs (weighing 300-500 g) were fixed at the back regions, and the thoracic aortae were then extracted to prepare helical samples, each ca. 2 mm in width and ca. 25 mm in length. Each sample was suspended in a Magnus tube under a load of ca. 1 g and connected at the upper end with an FD pickup by means of silk thread to record its isometric tension change on a recorder.
Prior to initiating the experiment, the sample was allowed to stand for 60 to 90 minutes, during which the Krebs-Henseleit solution was replaced by a new one at an interval of 20 to 30 minutes. […] Finally, papaverine was additionally provided to regulate the final concentration to 2 x 10- ^5g/ml, thereby observing and recording what relaxing reaction took place.
The state stabilized by the addition of KCI or NE was defined as a 100% relaxation rate, on the basis of which what reaction took place at each concentration was relatively estimated.

Q: Which IC50 (contraction by KCl 2.5 x 10^-2M, read-out: IC50(M) Contraction by KCl) does the source give for C(=C\c1ccccc1)/CN1CCN(C(c2ccccc2)c2ccccc2)CC1 [Cinnarizine, reference compound] here?
A: 0.0002 M

Q: What about the IC50 (contraction by norepinephrine 10^-6 g/ml, read-out: IC50(M) Contraction by NE) of the same compound?
A: 0.0001 M
